Measured values from the supplement of paper PMC12819154, “High-throughput peptide-centric local stability assay extends protein–ligand identification to membrane proteins, tissues and bacteria” (Nature Structural & Molecular Biology, 2025).
The other results are listed elsewhere or left out. Most values lie at the level of the controls, where differences are scatter.

Protein sequences, listed by entry. Tags and fused reporters are not part of them. Lines headed by an entry give the natural chain unless they say otherwise; changes in a name come on top.
UniProt O70572: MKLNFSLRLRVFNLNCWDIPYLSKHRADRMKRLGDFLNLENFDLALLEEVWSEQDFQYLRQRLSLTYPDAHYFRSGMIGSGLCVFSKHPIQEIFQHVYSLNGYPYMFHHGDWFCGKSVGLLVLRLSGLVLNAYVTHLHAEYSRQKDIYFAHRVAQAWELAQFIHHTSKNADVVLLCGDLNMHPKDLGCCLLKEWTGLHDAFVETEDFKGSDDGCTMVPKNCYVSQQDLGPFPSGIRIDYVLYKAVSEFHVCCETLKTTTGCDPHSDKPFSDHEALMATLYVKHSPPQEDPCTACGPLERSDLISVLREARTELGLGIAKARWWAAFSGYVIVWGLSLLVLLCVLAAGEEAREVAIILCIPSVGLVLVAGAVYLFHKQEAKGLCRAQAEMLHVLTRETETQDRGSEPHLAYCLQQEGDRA
UniProt O55060: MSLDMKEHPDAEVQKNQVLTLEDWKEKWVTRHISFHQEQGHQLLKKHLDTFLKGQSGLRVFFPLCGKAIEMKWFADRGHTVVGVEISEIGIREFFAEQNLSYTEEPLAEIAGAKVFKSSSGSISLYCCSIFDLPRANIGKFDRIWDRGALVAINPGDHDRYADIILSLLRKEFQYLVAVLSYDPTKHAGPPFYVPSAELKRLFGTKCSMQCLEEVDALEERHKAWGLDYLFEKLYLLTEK
UniProt P01592: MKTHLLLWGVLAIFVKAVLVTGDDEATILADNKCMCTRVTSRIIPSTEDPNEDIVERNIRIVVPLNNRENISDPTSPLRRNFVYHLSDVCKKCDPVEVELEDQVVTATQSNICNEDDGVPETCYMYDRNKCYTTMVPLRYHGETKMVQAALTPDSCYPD
UniProt O55101: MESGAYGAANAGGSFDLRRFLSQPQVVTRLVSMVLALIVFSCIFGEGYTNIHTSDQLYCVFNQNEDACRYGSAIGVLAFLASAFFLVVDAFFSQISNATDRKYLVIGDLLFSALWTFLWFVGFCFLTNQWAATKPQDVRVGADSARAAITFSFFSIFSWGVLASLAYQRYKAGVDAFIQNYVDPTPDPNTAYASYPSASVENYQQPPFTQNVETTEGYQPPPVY
UniProt O08997: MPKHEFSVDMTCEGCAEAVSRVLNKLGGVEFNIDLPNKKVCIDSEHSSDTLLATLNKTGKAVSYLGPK
UniProt O09173: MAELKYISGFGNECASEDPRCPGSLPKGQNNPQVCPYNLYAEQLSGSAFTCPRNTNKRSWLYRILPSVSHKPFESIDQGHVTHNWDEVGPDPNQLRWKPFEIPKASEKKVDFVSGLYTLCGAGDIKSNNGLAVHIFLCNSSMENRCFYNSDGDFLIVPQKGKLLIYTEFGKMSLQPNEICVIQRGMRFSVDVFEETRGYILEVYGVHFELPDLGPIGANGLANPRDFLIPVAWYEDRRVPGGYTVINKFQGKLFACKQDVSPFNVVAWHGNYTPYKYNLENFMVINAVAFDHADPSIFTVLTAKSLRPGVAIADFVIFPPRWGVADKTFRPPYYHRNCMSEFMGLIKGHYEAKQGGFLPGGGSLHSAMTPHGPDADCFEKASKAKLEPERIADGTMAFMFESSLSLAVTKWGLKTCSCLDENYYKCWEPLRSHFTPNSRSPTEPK
UniProt O08709: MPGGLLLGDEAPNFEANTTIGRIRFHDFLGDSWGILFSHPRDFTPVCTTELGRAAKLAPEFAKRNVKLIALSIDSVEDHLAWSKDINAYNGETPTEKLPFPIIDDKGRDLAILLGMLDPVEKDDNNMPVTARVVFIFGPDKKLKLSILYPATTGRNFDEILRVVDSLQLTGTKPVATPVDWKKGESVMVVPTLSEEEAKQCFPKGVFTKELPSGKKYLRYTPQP
UniProt O08795: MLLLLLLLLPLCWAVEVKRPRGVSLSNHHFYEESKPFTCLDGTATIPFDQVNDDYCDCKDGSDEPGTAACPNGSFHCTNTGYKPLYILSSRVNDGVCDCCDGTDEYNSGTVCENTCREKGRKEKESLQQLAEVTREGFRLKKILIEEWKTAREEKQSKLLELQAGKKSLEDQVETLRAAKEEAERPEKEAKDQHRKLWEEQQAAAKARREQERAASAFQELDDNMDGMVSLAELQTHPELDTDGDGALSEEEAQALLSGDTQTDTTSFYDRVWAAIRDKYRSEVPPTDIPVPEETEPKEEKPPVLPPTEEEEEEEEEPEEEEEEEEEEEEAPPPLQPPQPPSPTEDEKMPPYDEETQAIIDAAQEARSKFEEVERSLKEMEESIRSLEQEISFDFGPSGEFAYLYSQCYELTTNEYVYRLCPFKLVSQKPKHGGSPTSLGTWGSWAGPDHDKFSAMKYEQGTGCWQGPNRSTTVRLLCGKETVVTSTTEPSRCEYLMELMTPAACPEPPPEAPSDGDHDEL
UniProt O35448: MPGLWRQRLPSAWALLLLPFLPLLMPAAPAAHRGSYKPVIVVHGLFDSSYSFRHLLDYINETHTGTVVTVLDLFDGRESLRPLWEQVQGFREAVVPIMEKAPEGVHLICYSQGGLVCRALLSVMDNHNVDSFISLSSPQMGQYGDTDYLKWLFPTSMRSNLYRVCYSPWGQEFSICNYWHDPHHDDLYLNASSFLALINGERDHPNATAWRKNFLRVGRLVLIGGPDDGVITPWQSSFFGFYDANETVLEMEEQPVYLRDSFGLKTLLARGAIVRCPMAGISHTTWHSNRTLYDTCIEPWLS
UniProt O35423: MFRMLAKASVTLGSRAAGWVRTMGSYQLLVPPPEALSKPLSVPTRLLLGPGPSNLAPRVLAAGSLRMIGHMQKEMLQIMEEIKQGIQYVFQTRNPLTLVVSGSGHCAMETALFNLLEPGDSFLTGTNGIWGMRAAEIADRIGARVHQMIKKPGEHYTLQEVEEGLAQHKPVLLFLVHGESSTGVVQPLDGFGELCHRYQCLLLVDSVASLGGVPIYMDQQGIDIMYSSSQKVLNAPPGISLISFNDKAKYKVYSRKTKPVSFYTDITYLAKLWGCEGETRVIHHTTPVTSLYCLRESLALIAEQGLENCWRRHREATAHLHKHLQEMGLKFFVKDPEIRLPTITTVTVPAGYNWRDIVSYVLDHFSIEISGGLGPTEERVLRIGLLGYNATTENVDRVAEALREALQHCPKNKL
UniProt O88456: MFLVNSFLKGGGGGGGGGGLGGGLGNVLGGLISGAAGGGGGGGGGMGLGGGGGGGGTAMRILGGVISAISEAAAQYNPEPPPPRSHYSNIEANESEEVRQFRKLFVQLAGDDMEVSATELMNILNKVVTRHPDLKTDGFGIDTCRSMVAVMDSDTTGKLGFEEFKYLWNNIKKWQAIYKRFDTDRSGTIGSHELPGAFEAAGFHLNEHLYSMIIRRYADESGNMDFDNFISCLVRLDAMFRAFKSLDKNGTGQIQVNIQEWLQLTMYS
UniProt O89050, whole entry: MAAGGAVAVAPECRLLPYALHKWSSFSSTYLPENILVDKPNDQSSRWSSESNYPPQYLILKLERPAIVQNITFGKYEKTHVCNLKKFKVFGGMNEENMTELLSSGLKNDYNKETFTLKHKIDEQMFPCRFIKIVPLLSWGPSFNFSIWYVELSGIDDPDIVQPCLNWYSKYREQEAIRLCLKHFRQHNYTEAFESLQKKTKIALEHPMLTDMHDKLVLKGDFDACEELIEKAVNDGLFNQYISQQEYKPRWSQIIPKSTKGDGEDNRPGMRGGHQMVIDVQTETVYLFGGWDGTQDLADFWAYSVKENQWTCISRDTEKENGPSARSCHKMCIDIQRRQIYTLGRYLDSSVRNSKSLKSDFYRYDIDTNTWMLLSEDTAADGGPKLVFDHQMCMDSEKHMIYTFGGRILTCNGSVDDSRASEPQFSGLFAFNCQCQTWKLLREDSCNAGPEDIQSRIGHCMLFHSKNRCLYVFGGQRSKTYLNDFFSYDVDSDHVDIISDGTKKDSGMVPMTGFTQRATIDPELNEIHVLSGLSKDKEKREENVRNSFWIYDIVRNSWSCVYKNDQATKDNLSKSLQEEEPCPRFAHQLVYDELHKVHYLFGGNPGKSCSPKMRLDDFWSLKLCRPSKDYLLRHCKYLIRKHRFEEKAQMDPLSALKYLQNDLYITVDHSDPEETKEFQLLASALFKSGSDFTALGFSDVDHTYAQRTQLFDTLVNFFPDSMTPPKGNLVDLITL
UniProt O89079: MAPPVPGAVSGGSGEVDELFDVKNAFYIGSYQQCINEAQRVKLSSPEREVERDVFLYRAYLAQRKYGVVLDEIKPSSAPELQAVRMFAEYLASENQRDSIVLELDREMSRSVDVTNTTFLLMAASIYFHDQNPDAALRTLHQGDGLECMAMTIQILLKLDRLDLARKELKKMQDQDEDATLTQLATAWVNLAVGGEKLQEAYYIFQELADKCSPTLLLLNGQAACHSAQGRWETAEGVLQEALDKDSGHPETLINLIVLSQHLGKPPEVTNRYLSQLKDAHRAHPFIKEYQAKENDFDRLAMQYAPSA
UniProt O35350: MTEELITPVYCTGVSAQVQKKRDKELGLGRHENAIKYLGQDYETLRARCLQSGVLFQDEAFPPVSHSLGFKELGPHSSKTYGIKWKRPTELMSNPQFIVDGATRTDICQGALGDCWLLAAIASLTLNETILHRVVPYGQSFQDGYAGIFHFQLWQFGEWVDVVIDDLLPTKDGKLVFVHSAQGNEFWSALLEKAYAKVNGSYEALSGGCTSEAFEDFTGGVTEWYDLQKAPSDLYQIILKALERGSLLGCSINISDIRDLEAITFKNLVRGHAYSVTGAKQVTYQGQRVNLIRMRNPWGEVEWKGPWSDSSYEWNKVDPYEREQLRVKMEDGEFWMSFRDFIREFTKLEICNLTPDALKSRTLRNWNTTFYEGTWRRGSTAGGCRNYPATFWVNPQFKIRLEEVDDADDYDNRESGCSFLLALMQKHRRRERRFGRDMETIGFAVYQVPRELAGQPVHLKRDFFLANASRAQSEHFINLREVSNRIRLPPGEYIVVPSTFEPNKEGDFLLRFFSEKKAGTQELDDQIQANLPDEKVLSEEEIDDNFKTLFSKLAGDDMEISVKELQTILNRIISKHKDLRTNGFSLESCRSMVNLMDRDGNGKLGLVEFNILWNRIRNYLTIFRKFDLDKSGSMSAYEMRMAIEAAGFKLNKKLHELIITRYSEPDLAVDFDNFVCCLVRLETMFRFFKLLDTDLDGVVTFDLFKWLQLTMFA
UniProt O55013, whole entry: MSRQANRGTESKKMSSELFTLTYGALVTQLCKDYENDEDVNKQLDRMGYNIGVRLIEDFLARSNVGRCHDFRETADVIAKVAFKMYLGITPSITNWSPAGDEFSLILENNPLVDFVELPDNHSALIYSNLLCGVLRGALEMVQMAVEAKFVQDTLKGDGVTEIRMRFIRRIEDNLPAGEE
UniProt O35864, whole entry: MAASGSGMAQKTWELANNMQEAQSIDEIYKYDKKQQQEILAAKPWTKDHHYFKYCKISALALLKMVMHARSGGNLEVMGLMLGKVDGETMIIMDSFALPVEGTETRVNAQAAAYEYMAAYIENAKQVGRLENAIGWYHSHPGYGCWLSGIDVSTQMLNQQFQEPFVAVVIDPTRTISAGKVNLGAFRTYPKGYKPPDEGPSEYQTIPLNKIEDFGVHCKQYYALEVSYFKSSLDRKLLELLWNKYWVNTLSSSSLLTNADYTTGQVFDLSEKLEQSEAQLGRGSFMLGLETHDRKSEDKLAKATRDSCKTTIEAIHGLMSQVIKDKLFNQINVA
UniProt O54865: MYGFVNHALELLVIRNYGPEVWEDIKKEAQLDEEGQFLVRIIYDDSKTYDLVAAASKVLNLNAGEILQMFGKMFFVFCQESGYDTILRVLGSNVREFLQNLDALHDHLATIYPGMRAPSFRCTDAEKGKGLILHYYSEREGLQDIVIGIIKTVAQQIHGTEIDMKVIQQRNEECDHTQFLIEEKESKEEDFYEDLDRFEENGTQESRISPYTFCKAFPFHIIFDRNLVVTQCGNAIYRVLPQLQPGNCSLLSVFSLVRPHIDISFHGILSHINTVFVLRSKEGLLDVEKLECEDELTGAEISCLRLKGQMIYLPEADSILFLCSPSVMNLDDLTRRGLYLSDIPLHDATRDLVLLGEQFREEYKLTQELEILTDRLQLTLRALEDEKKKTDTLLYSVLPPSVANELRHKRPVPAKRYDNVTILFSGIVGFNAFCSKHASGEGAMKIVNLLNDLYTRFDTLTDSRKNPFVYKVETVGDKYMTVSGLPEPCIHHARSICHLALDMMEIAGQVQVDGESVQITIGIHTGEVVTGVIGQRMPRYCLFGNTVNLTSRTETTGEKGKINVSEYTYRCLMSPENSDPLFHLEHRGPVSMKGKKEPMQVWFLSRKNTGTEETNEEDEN
UniProt O54724: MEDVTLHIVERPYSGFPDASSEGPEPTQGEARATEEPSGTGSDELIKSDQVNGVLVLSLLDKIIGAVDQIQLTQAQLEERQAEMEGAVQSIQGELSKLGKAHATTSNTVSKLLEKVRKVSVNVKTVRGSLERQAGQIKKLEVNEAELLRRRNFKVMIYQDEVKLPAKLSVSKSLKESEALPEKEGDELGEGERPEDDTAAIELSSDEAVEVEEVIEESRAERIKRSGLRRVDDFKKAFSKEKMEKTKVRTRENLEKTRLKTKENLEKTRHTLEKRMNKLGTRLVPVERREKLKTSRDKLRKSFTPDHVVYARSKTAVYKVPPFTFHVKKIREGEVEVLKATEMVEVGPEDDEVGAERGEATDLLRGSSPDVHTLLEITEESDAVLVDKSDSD

compound: CN[C@@H]1C[C@H]2O[C@@](C)([C@@H]1OC)n1c3ccccc3c3c4c(c5c6ccccc6n2c5c31)C(=O)NC4 [staurosporine]; experiment: log2 fold change of pooled soluble protein (PISA), ligand vs vehicle (log2 ratio); higher = more thermally stabilized; conditions: ligand concentration: 20 uM; assay format: PISA pool 52.9/55.5/58.6 C

Target | log2 fold change of pooled soluble protein
UniProt O08532 | -0.0489
UniProt O35945 | -0.00312
UniProt O70255 | 0.0416
UniProt O08553 | -0.0244
UniProt O88343 | 0.269
UniProt O54890 | 0.102
UniProt O70572 | 0.266
UniProt O55060 | 0.104
UniProt P01592 | 0.0127
UniProt O55101 | -0.041
UniProt P00493 | -0.261
UniProt O08997 | 0.135
UniProt O09044 | 0.0205
UniProt O09173 | 0.0271
UniProt O08709 | 0.0539
UniProt O08795 | 0.1
UniProt O35448 | 0.0323
UniProt O35423 | 0.0273
UniProt O88456 | 0.0164

Target | log2 fold change of pooled soluble protein
UniProt O09172 | -0.016
UniProt O89050 | -0.0622
UniProt O35488 | 0.0301
UniProt O89079 | 0.329
UniProt O55128 | 0.179
UniProt O35350 | -0.196
UniProt O70228 | -0.205
UniProt O88545 | 0.109
UniProt O54983 | 0.0672
UniProt O55013 | -0.00856
UniProt O70133 | -0.111
UniProt O89110 | -0.0794
UniProt O70589 | 0.0919
UniProt G3X9K3 | 0.106
UniProt O35864 | -0.0974
UniProt O09111 | -0.247
UniProt O54865 | -0.00118
UniProt O54724 | -0.104

Pulled one by one from above (2):
Target | log2 fold change of pooled soluble protein
UniProt O54724 | -0.104
UniProt O88545 | 0.109
